1 substance from article PMC12411611 can be followed below.

Protein sequences, listed by entry. Tags and fused reporters are not part of them.
UniProt Q9Z2D8: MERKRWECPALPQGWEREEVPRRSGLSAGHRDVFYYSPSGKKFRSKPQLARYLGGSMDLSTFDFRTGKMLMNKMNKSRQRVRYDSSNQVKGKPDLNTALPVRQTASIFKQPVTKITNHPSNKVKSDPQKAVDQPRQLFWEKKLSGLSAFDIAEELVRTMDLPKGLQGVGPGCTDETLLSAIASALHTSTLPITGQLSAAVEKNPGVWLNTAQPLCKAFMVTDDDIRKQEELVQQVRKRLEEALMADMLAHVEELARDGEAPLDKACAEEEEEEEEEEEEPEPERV
UniProt Q8K4B0: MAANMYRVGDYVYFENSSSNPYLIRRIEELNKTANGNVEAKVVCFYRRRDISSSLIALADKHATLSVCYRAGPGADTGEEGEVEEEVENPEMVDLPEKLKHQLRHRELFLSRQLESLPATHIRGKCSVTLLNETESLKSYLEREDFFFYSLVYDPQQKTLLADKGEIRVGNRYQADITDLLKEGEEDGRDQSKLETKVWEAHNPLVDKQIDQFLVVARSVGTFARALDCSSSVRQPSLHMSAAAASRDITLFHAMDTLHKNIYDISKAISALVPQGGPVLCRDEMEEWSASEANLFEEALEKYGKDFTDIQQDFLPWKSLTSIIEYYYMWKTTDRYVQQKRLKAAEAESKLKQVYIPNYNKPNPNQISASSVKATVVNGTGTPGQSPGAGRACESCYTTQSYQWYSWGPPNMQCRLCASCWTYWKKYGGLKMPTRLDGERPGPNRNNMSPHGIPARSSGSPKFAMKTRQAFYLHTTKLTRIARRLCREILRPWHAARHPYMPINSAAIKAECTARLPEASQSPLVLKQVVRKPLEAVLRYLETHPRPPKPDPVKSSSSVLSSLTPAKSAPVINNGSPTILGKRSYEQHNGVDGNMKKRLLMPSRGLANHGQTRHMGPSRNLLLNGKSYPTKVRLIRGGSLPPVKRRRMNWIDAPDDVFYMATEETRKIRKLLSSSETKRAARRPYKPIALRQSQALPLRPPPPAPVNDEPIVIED

The target in this assay is Mbd3 (as immunoprecipitated with NuRD components) (UniProt Q9Z2D8). Briefly: co-IP; IP of Mbd3 with blots for NuRD components, with and without Wnt3a treatment; IP buffer (50 mM Tris-HCl pH 7.4, 150 mM NaCl, 0.5% Triton X-100, 1% NP-40), Protein A/G beads, immunoblot.

No constants are given. Whether binding was seen depends on the method and setting. Binding seen in cells or lysates may run through a third protein. Some binding calls cover weakened binding; strength is not graded here.

Regarding MTA1 (from UniProt Q8K4B0 1-715), the binding result is on record as “binds”.
